Measured values: publication PMC2840025
These are yes or no findings as the source states them, for the method shown. Binding seen in cells or lysates may run through a third protein. These calls come from enrichment with a bait or labelling near it, and not all partners need be listed. Where a sequence is shown, tags or fusion partners need not be part of it.

Molecular target: T1, EGFP fusion of AGS3 (Activator of G protein Signaling 3) (UniProt Q9R080)
T1 sequence: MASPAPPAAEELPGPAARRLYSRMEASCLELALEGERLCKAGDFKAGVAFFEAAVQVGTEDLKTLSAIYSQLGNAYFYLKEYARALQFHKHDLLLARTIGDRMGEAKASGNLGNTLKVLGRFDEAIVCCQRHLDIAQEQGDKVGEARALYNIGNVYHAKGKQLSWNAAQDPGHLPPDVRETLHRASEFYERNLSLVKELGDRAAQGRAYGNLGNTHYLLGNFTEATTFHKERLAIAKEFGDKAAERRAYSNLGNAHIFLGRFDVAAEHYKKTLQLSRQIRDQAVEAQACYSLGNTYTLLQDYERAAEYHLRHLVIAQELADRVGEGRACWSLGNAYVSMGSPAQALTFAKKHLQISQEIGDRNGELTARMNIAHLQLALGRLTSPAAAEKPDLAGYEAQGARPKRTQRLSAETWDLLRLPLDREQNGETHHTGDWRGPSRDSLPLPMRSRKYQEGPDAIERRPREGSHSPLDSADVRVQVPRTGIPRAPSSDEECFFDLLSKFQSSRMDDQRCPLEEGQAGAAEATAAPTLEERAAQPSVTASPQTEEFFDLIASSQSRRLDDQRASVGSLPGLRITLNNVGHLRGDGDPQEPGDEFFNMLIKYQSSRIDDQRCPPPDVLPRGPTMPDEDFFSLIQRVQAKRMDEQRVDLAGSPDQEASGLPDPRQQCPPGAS
Test: affinity purification with mass spectrometry; anti-GFP magnetic microbeads, Flp-In CV-1 stable cells, stringent wash (650 mM NaCl, 1% Igepal CA-630, 0.5% sodium deoxycholate, 0.1% SDS, 50 mM Tris-HCl pH 8.0); band excised from SDS-PAGE, tandem mass spectrometry

- binding: binds
Substance: USP9x (Ubiquitin Specific Protease 9x), endogenous in monkey cell lines (enzyme)
